Results are given in words; binding and its absence hold for the method and conditions named. Binding seen in cells or lysates may run through a third protein. A yes stands for co-enrichment or nearness to the bait. Other partners may have been found. Sequences can lack the tags named with a protein.
T1: Reg1-FLAG (wild type) (S. cerevisiae) (UniProt Q00816)
T1 sequence: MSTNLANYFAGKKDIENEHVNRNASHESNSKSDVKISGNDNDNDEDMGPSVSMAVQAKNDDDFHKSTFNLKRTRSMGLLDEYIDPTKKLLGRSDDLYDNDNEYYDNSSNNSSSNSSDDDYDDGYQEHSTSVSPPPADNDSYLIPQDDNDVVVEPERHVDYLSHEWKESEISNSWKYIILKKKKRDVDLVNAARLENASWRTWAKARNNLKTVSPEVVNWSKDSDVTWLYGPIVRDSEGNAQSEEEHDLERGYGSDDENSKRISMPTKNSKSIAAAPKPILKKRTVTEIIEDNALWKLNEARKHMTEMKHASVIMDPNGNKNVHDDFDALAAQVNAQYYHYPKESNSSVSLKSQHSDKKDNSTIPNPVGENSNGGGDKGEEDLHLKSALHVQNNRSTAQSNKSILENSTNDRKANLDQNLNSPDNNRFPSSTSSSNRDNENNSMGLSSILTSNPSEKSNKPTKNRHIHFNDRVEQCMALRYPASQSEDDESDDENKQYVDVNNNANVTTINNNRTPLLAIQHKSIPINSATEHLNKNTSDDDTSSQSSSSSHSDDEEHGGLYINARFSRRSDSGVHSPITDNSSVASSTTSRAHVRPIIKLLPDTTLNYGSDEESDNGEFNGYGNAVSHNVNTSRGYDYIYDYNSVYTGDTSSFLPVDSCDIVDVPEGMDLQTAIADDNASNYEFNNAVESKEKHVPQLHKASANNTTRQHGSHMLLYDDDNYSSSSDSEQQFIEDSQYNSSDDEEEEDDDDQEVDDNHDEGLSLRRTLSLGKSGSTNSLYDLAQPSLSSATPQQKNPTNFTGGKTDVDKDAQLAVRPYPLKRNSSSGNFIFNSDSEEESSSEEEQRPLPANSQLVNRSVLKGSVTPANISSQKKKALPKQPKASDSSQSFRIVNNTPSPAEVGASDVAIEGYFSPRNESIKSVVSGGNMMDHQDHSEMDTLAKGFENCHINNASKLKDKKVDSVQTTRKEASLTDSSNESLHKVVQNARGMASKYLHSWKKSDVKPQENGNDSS

Amino acid sequences for entries named in this document (tags omitted).
UniProt P32598: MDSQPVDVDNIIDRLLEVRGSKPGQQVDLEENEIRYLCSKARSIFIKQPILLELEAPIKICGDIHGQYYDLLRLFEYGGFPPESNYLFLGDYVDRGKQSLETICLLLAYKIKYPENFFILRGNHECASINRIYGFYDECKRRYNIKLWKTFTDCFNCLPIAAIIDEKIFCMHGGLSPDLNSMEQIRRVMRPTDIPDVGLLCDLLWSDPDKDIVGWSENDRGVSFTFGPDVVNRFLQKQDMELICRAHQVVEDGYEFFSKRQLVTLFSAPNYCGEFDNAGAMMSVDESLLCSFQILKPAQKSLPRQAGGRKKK

B1: Snf1 (protein, UniProt P06782 1-633)
chain: MSSNNNTNTAPANANSSHHHHHHHHHHHHHGHGGSNSTLNNPKSSLADGAHIGNYQIVKTLGEGSFGKVKLAYHTTTGQKVALKIINKKVLAKSDMQGRIEREISYLRLLRHPHIIKLYDVIKSKDEIIMVIEYAGNELFDYIVQRDKMSEQEARRFFQQIISAVEYCHRHKIVHRDLKPENLLLDEHLNVKIADFGLSNIMTDGNFLKTSCGSPNYAAPEVISGKLYAGPEVDVWSCGVILYVMLCRRLPFDDESIPVLFKNISNGVYTLPKFLSPGAAGLIKRMLIVNPLNRISIHEIMQDDWFKVDLPEYLLPPDLKPHPEEENENNDSKKDGSSPDNDEIDDNLVNILSSTMGYEKDEIYESLESSEDTPAFNEIRDAYMLIKENKSLIKDMKANKSVSDELDTFLSQSPPTFQQQSKSHQKSQVDHETAKQHARRMASAITQQRTYHQSPFMDQYKEEDSTVSILPTSLPQIHRANMLAQGSPAASKISPLVTKKSKTRWHFGIRSRSYPLDVMGEIYIALKNLGAEWAKPSEEDLWTIKLRWKYDIGNKTNTNEKIPDLMKMVIQLFQIETNNYLVDFKFDGWESSYGDDTTVSNISEDEMSTFSAYPFLHLTTKLIMELAVNSQSN
B2: Rod1 (protein, UniProt Q02805 1-837)
chain: MFSSSSRPSKEPLLFDIRLRNLDNDVLLIKGPPDEASSVLLSGTIVLSITEPIQIKSLALRLFGRLRLNIPTVLQTVHGPHKRYSKFERNIYSHFWDDFNIKSYFQNLYDNHNNGKITISSKSSTNLAALPKRKRALSTASLISSNGQTSASKNYHTLVKGNYEFPFSAIIPGSLVESVEGLPNAAVTYALEATIERPKQPDLICKKHLRVIRTLAIDAVELSETVSVDNSWPEKVDYTISIPTKAIAIGSSTMINILIVPILKGLKLGPVRISLVENSQYCGSYGGVINQERMVAKLKLKDPLKHVAQIKKKRSLNEAADEGVDTDTGEFQDKWEVRALLNIPASLTKCSQDCRILSNIKVRHKIKFTISLLNPDGHISELRAALPVQLFISPFVPVNVKTSDVIERTLKTFGPSYQVTSQHDNSFSSKNFVDDSEEDVIFQRSASALQLSSMPTIVSGSTLNINSTDAEATAVADTTMVTSLMVPPNYGNHVYDRVYGEVTNEDETSASASSSAVESQAIHNIQNLYISDSNNSNNPILAPNPQIKIEDDSLNNCDSRGDSVNNSNLNLVNSNLTISENWNNNSPSANRYNNIINAGLNSPSLTPSFAHLSRRNSYSRQTSSTSLKNDLELTDLSRVPSYDKAMKSDMIGEDLPPAYPEEELGVQENKKIELERPQILHHKSTSSLLPLPGSSKSSNNLKRSSSRTHLSHSPLPRNNSGSSVSLQQLARNNTDSSFNLNLSFTSAKSSTGSRHFPFNMTTSFTSNSSSKNNSHFDKTDSTSDANKPREEENYTSATHNRRSRSSSVRSNNSNSPLRQGTGSFANLMEMFTKRDRS

target: T1, Reg1-FLAG (wild type) (S. cerevisiae); assay: affinity purification with mass spectrometry; Reg1-FLAG (WT or W165G) precipitated on anti-FLAG M2 agarose from native yeast lysates before and after treatment of the cells with 2DG (10 min in the text, 15' in the legend); label-free quantitative proteomics, n = 4

Row | binding | Molecule
1 | binds | Glc7 (from UniProt P32598 1-312)
2 | binds | B1
3 | binds | B2

— publication PMC12520357 (2025)
